Experimental data from paper PMC10565641.
No constants are given. Whether binding was seen depends on the method and setting. In cells and extracts the contact can be indirect. Some results given as binding are weak or reduced against the parent protein; the word gives no strength.

Protein sequences, listed by entry. Tags and fused reporters are not part of them.
UniProt Q969H0: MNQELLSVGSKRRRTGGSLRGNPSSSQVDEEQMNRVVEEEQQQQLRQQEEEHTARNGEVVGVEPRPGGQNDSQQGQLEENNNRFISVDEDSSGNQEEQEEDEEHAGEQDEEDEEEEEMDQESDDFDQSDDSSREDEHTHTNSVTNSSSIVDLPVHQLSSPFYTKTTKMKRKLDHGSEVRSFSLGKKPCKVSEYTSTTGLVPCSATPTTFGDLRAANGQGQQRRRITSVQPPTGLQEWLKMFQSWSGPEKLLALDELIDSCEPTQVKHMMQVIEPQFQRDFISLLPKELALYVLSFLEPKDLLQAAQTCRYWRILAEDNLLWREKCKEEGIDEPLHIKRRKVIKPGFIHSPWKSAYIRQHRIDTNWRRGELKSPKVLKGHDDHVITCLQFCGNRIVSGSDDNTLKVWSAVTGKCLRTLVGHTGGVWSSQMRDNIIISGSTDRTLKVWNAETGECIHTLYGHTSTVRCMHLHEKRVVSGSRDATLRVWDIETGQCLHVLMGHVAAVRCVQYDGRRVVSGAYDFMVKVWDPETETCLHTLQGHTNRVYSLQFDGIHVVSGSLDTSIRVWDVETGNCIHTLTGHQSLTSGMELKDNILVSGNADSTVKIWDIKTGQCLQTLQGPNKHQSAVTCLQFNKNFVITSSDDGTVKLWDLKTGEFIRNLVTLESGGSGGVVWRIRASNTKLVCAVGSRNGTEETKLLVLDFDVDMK
UniProt Q9UJU2: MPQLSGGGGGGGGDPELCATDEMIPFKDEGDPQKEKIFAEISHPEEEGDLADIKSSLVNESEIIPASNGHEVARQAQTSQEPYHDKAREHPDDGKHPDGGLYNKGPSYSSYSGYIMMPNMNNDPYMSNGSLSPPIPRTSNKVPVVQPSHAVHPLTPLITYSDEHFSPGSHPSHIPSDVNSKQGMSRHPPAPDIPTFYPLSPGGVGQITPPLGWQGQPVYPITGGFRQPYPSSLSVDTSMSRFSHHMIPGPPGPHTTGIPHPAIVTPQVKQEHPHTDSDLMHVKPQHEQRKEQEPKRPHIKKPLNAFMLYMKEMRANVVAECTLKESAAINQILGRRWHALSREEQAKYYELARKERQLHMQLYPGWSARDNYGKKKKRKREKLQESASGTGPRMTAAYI
UniProt Q9NQB0: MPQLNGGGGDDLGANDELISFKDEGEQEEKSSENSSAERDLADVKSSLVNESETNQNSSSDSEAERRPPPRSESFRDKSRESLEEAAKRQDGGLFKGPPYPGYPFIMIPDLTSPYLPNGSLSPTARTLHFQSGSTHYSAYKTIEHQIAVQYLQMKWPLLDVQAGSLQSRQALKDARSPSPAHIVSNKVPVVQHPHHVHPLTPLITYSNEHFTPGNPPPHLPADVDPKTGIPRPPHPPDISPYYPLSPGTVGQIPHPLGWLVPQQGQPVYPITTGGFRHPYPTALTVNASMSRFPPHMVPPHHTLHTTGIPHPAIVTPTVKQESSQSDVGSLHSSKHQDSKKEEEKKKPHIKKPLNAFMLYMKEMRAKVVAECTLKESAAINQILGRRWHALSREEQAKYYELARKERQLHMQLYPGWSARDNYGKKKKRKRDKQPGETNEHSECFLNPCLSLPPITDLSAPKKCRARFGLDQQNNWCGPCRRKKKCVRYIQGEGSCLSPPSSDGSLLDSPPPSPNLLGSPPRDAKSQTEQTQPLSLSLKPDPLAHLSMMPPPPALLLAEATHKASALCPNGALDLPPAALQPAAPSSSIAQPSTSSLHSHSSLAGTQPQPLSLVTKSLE
UniProt P35222: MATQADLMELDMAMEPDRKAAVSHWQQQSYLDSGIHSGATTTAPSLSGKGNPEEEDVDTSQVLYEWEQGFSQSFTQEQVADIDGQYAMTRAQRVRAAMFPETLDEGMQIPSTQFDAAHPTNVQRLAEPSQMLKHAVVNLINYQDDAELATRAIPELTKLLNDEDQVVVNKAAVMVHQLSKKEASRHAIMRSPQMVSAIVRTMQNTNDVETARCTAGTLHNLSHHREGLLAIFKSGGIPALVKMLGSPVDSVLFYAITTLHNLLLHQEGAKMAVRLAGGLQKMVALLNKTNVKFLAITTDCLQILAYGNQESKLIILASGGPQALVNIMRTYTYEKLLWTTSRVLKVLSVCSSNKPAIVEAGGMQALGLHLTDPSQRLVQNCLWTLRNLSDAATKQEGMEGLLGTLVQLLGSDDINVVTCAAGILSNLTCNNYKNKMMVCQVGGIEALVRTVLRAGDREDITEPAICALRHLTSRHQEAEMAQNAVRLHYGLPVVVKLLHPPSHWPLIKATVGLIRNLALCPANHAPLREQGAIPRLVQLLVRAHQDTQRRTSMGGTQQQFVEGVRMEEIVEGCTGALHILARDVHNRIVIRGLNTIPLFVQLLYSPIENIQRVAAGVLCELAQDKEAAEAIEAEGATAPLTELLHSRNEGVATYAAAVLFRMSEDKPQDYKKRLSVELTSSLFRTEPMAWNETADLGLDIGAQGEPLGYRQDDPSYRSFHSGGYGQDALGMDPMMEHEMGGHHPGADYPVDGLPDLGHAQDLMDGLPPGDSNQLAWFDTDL

Legend:
Experiment in all cases: co-IP; HEK293T cells co-transfected with tagged constructs; benzonase lysis buffer, KCl to 450 mM then diluted to 150 mM; anti-FLAG M2 magnetic beads 2 h; five washes with 100 mM KCl at 4°C; immunoblot for tagged or indicated proteins
[1] = biological target: FLAG-V5-tagged FBXW7α, wild type (human) (UniProt Q969H0)
[2] = biological target: FLAG-V5-tagged full length LEF1 (human) (UniProt Q9UJU2)
[3] = biological target: FLAG-V5-tagged TCF7L2 (human) (UniProt Q9NQB0)

With “Myc-tagged TCF7L2 (from UniProt Q9NQB0 1-619)” the binding [1] was “binds”.

With β-catenin (from UniProt P35222 1-781) the binding [2] was “binds”.

For “Myc-tagged FBXW7α (from UniProt Q969H0 1-707)”, the binding [3] was “binds”.
